# In PubChem BioAssay AID624297 (National Center for Advancing Translational Sciences (NCATS), 2012):
# Out of some 340,000 compounds screened, about 6,200 (1.8%) were called active. This list was built around the results that the source calls inconclusive (neither active nor inactive); the mix of calls is not that of the screen. Calls follow the shape of the dose curve; as a rule, active = well fitted activation curve with a large enough effect; inconclusive = small, poorly fitted or top-dose-only effect; inactive = no such curve, though single readings can be large or run the other way. Where the call is inconclusive, the potency comes from a doubtful curve fit.
# Experiment: A quantitative high throughput screen for small molecules that induce DNA re-replication in SW480 colon adenocarcinoma cells. Also: nearly all actives have a fitted effect of over 55% in size. As to re-replication activation: % of control where 0% means no effect.
# Settings: Hoechst DNA content imaging, 48 h; re-replication activation: at 46.1 µM (top of the series) unless noted
# How it was run: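 Image-based DNA-content assay: after two days of treatment, nuclei were labelled with the DNA dye Hoechst and imaged, and hits were compounds raising the count of nuclei showing high fluorescence intensity.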
# Potency is read from the fitted curve at half-maximal effect.
Structure (SMILES),Potency,re-replication activation
Cn1cc(CN2C[C@H]3CC[C@H]2C3)c(-c2ccccc2F)n1,inactive,
CC1CCCCN1C(=O)c1cc(-c2ccc(Cl)c(Cl)c2)on1 (configuration not stated),inactive,
CCOC(=O)N1CCN(c2c(NCc3ccccc3Cl)c(=O)c2=O)CC1,"inconclusive: 29.1 µM [activator, single point]",
O=C(CSc1nnc(-c2ccc(O)cc2)o1)Nc1ccccc1,inactive,
O=C(CSc1c2c(nc3ccc(Cl)cc13)CCCC2)NCc1ccco1,"inconclusive: 29.1 µM [activator, single point]",
Cn1cccc1C1C=C(c2ccc(C(C)(C)C)cc2)Nc2ncnn21 (configuration not stated),"inconclusive: 16.4 µM [activator, single point]",
CCSc1ccccc1C(=O)n1nnc2ccccc21,"inconclusive: 35.5 µM [activator, single point]",
CC(C)CCNC(=O)CCCOc1cc(=O)n(C)c2ccccc12,inactive,
C[C@@H]1NC(=O)c2cc([N+](=O)[O-])cc(I)c2OCC[C@@H](C(N)=O)NC(=O)[C@H](CCCCN)NC1=O,"inconclusive: 0.58 µM [activator, full curve]",
Cn1c(N2CCOCC2)c(/C=N/OC(=O)c2ccc(F)cc2)c2ccccc21,"inconclusive: 0.82 µM [activator, full curve, poor fit]",
CCN1C(=O)[C@@H]2[C@@H](c3ccc(-c4ccc(Cl)c(Cl)c4)cc3)N3CCCC[C@@]3(C(=O)OC)[C@@H]2C1=O,"inconclusive: 6.51 µM [activator, single point]",
CN(Cc1ccccc1F)c1nc(-c2cccs2)nc2ccccc12,"inconclusive: 32.6 µM [activator, partial curve, poor fit]",
COc1nc(NCCc2ccc(OC)c(OC)c2)nc(OC)n1,inactive,
COCCNC(=O)CCC1CCN(Cc2cccc(Oc3ccccc3)c2)CC1,"inconclusive: 4.61 µM [activator, full curve, poor fit]",
Cc1ccc(Cc2nnc3n(-c4ccccc4)nc(C(=O)c4ccccc4)n3c2=O)cc1,active: 18.4 µM,
Cc1sc(N)nc1-c1ccc(Oc2ccccc2)cc1,inactive,
Cc1ccc(C2NC(=O)c3ccccc3N2)c(C)c1 (configuration not stated),"inconclusive: 5.17 µM [activator, full curve]",
COC(=O)c1[nH]c2ccc(C)cc2c1NS(=O)(=O)c1ccc(F)c(C)c1,inactive,
CNC(=S)NNC(=O)c1cccs1,"inconclusive: 0.0041 µM [activator, full curve, poor fit]",
CCC(C)NCCOCCOc1ccc(Cl)c2ccccc12 (configuration not stated),"inconclusive: 29.1 µM [activator, single point]",
CN1CCN(c2nc(-c3cccs3)nc3ccccc23)CC1,"inconclusive: 6.51 µM [activator, partial curve, poor fit]",
O=C(CCn1nc(-c2ccc(Cl)cc2)ccc1=O)N1CCN(c2ccccn2)CC1,"inconclusive: 6.51 µM [activator, single point]",
O=[N+]([O-])c1ccc(N/N=C/c2sc(N3CCOCC3)nc2-c2ccccc2)c(S(=O)(=O)Nc2ccccc2Cl)c1,active: 13 µM,
CCc1ccc2oc(C(=O)N3CCN(c4ccc(OC)cc4)CC3)cc(=O)c2c1,inactive,

Structure (SMILES),Potency,re-replication activation
O=C1C=CC(=C(c2ccc(O)cc2)c2ccc(O)cc2)C=C1,"inconclusive: 18.4 µM [activator, single point]",
OC(COC(c1ccc(F)cc1)c1ccc(F)cc1)CN1CCc2ccccc2C1 (configuration not stated),"inconclusive: 14.6 µM [activator, partial curve, poor fit]",
CC1CCN(c2ccc3c(c2)S(=O)(=O)c2ccccc2C3=O)CC1,active: 23.1 µM,
O=C(Nc1cccc(O)c1)c1c(O)c2ccccc2[nH]c1=O,,inconclusive: 165% [activator]
CCOC(=O)CN(C(=O)CSc1nnc(-c2cccc(OC)c2)o1)c1ccc(F)cc1,inactive,
COc1ccccc1NC(=O)C(=O)NNS(=O)(=O)c1ccc2ccccc2c1,"inconclusive: 1.46 µM [activator, partial curve, poor fit]",
CCc1ccc(NC(=O)c2ccc(OC)c([N+](=O)[O-])c2)cc1,inactive,
Cc1ccc(Cn2ncc3c(NCCCN4CCOCC4)ncnc32)cc1,inactive,
COc1ccc(C2=CCN3CCCCC3C2)c(-c2ccc(OC)c(OC)c2)c1 (configuration not stated),inactive,
O=C(O)COc1ccccc1/C=N/NC(=O)CSc1nc2ccccc2n1Cc1ccccc1,"inconclusive: 1.16 µM [activator, full curve]",
CC(NC(=O)c1cc(-c2ccccn2)nc2ccc(Cl)cc12)C1CCCO1 (configuration not stated),inactive,
COC(=O)C1C/C(=N\NS(=O)(=O)c2ccc(C)cc2)c2ccccc2C1 (configuration not stated),"inconclusive: 23.1 µM [activator, single point]",
O=C(Nc1ccccc1)NC1CCCc2ccccc21 (configuration not stated),active: 1.16 µM,
Cc1cc(NC(=O)c2ccc3c(c2)OCCO3)no1,"inconclusive: 31.6 µM [activator, single point]",
Cc1cc(C)c(OCC(=O)OCC(=O)N2c3ccccc3CC2C)c(C)c1 (configuration not stated),"inconclusive: 29.1 µM [activator, single point]",
COc1ccc(-c2nc3ccccc3n2Cc2ccccc2)cc1,inactive,
O=[N+]([O-])c1ccc(-n2nnnc2-c2ccccc2)cc1,inactive,
COc1ccccc1CCN1CCCC(CN(C)CC(C)(C)CO)C1 (configuration not stated),inactive,
CC(C)c1ccc(/C=N/Nc2cc(N3CCOCC3)nc(N3CCOCC3)n2)cc1,"inconclusive: 25.9 µM [activator, single point]",
N#C/C(=C/c1ccc(Sc2nc3ccccc3[nH]2)o1)c1ccccc1F,"inconclusive: 16.4 µM [activator, single point]",
COc1cccc(CN(C)C(=O)Cc2c[nH]c3ccccc23)c1,"inconclusive: 23.1 µM [activator, single point]",
CCOc1ccc(Oc2ccc(Cl)cc2NC(=O)C2=COCCO2)cc1,"inconclusive: 23.1 µM [activator, partial curve, poor fit]",
CC(=O)c1ccc(OC2OCCOC2Oc2ccc(C(C)=O)cc2)cc1 (configuration not stated),"inconclusive: 2.91 µM [activator, partial curve, poor fit]",

# By substructure, the compounds so far with an NH in an aromatic ring (four)
Structure (SMILES),Potency,re-replication activation
COC(=O)c1[nH]c2ccc(C)cc2c1NS(=O)(=O)c1ccc(F)c(C)c1,inactive,
O=C(Nc1cccc(O)c1)c1c(O)c2ccccc2[nH]c1=O,,inconclusive: 165% [activator]
N#C/C(=C/c1ccc(Sc2nc3ccccc3[nH]2)o1)c1ccccc1F,"inconclusive: 16.4 µM [activator, single point]",
COc1cccc(CN(C)C(=O)Cc2c[nH]c3ccccc23)c1,"inconclusive: 23.1 µM [activator, single point]",
